Test results taken from patent US20200317791A1.

How the values were obtained:
B47,Bw4_B*47:01 (human) = experiment: LABScreen beads
B50,Bw6_B*50:01 (human) = experiment: LABScreen beads
B61,Bw6_B*40:02 (human) = experiment: LABScreen beads
B62,Bw6_B*15:01 (human) = experiment: LABScreen beads
B71,Bw6_B*15:10 (human) = experiment: LABScreen beads
B13,Bw4_B*13:02 (human) = experiment: LABScreen beads, 10 µg/ml antibody
B18,Bw6_B*18:01 (human) = experiment: LABScreen beads, 10 µg/ml antibody
[1] = target: B27,Bw4_B*27:05 (human), B*27:0; experiment: LABScreen beads, 10 µg/ml antibody
B27,Bw6_B*27:08 (human) = experiment: LABScreen beads, 10 µg/ml antibody
B35,Bw6_B*35:01 (human) = experiment: LABScreen beads, 10 µg/ml antibody
B37,Bw4_B*37:01 (human) = experiment: LABScreen beads, 10 µg/ml antibody
B38,Bw4_B*38:01 (human) = experiment: LABScreen beads, 10 µg/ml antibody
B44,Bw4_B*44:03 (human) = experiment: LABScreen beads, 10 µg/ml antibody
B49,Bw4_B*49:01 (human) = experiment: LABScreen beads, 10 µg/ml antibody
B51,Bw4_B*51:01 (human) = experiment: LABScreen beads, 10 µg/ml antibody
B51,Bw4_B*51:02 (human) = experiment: LABScreen beads, 10 µg/ml antibody
B52,Bw4_B*52:01 (human) = experiment: LABScreen beads, 10 µg/ml antibody
B53,Bw4_B*53:01 (human) = experiment: LABScreen beads, 10 µg/ml antibody
B54,Bw6_B*54:01 (human) = experiment: LABScreen beads, 10 µg/ml antibody
B55,Bw6_B*55:01 (human) = experiment: LABScreen beads, 10 µg/ml antibody
B56,Bw6_B*56:01 (human) = experiment: LABScreen beads, 10 µg/ml antibody
B57,Bw4_B*57:01 (human) = experiment: LABScreen beads, 10 µg/ml antibody
B57,Bw4_B*57:03 (human) = experiment: LABScreen beads, 10 µg/ml antibody
B58,Bw4_B*58:01 (human) = experiment: LABScreen beads, 10 µg/ml antibody
B59,Bw4_B*59:01 (human) = experiment: LABScreen beads, 10 µg/ml antibody
B61,Bw6_B*40:06 (human) = experiment: LABScreen beads, 10 µg/ml antibody
B63,Bw4_B*15:16 (human) = experiment: LABScreen beads, 10 µg/ml antibody
B64,Bw6_B*14:01 (human) = experiment: LABScreen beads, 10 µg/ml antibody
B65,Bw6_B*14:02 (human) = experiment: LABScreen beads, 10 µg/ml antibody
B67,Bw6_B*67:01 (human) = experiment: LABScreen beads, 10 µg/ml antibody
B75,Bw6_B*15:02 (human) = experiment: LABScreen beads, 10 µg/ml antibody
B75,Bw6_B*15:11 (human) = experiment: LABScreen beads, 10 µg/ml antibody
B77,Bw4_B*15:13 (human) = experiment: LABScreen beads, 10 µg/ml antibody
B78,Bw6_B*78:01 (human) = experiment: LABScreen beads, 10 µg/ml antibody
B8,Bw6_B*08:01 (human) = experiment: LABScreen beads, 10 µg/ml antibody
Cw10_C*03:02 (human) = experiment: LABScreen beads, 10 µg/ml antibody
Cw10_C*03:04 (human) = experiment: LABScreen beads, 10 µg/ml antibody
Cw12_C*12:03 (human) = experiment: LABScreen beads, 10 µg/ml antibody
Cw14_C*14:02 (human) = experiment: LABScreen beads, 10 µg/ml antibody
Cw15_C*15:02 (human) = experiment: LABScreen beads, 10 µg/ml antibody
Cw16_C*16:01 (human) = experiment: LABScreen beads, 10 µg/ml antibody
Cw17_C*17:01 (human) = experiment: LABScreen beads, 10 µg/ml antibody
Cw18_C*18:02 (human) = experiment: LABScreen beads, 10 µg/ml antibody
Cw1_C*01:02 (human) = experiment: LABScreen beads, 10 µg/ml antibody
Cw2_C*02:02 (human) = experiment: LABScreen beads, 10 µg/ml antibody
Cw4_C*04:01 (human) = experiment: LABScreen beads, 10 µg/ml antibody
Cw5_C*05:01 (human) = experiment: LABScreen beads, 10 µg/ml antibody
[2] = target: Cw6_C*06:02 (human), C*06:0; experiment: LABScreen beads, 10 µg/ml antibody
[3] = target: Cw7_C*07:02 (human), C*07:0; experiment: LABScreen beads, 10 µg/ml antibody
Cw8_C*08:01 (human) = experiment: LABScreen beads, 10 µg/ml antibody
Cw9_C*03:03 (human) = experiment: LABScreen beads, 10 µg/ml antibody

B1: CW6B228 (antibody, V domains shown)
VH: QVQLQESGPGLVKPSETLSLTCTVSGNSIRSYYWSWIRQPAGKGLEWIGRIYISGNTNYNPSLKSRVTMSIDTSKNQFSLKLSSVTAADTAVYYCARLSGIDAFDIWGQGTMVTVSS
VL: DIQMTQSPSSLSASVGDRVTITCQASQDINNYLNWYQQKPGKAPKLLIYDASSLETGVPSRFSGSGSGTDFTFTISSLQPEDFATYYCQQYDDLPITFGQGTRLEIK
- binding (B47,Bw4_B*47:01 (human)): no binding (tested: 10 µg/ml)
- binding (B50,Bw6_B*50:01 (human)): no binding (tested: 10 µg/ml)
- binding (B61,Bw6_B*40:02 (human)): no binding (tested: 10 µg/ml)
- binding (B62,Bw6_B*15:01 (human)): no binding (tested: 10 µg/ml)
- binding (B71,Bw6_B*15:10 (human)): no binding (tested: 10 µg/ml)
- binding (B13,Bw4_B*13:02 (human)): binds
- binding (B18,Bw6_B*18:01 (human)): binds
- binding [1]: binds
- binding (B27,Bw6_B*27:08 (human)): binds
- binding (B35,Bw6_B*35:01 (human)): binds
- binding (B37,Bw4_B*37:01 (human)): binds
- binding (B38,Bw4_B*38:01 (human)): binds
- binding (B44,Bw4_B*44:03 (human)): binds
- binding (B49,Bw4_B*49:01 (human)): binds
- binding (B51,Bw4_B*51:01 (human)): binds
- binding (B51,Bw4_B*51:02 (human)): binds
- binding (B52,Bw4_B*52:01 (human)): binds
- binding (B53,Bw4_B*53:01 (human)): binds
- binding (B54,Bw6_B*54:01 (human)): binds
- binding (B55,Bw6_B*55:01 (human)): binds
- binding (B56,Bw6_B*56:01 (human)): binds
- binding (B57,Bw4_B*57:01 (human)): binds
- binding (B57,Bw4_B*57:03 (human)): binds
- binding (B58,Bw4_B*58:01 (human)): binds
- binding (B59,Bw4_B*59:01 (human)): binds
- binding (B61,Bw6_B*40:06 (human)): binds
- binding (B63,Bw4_B*15:16 (human)): binds
- binding (B64,Bw6_B*14:01 (human)): binds
- binding (B65,Bw6_B*14:02 (human)): binds
- binding (B67,Bw6_B*67:01 (human)): binds
- binding (B75,Bw6_B*15:02 (human)): binds
- binding (B75,Bw6_B*15:11 (human)): binds
- binding (B77,Bw4_B*15:13 (human)): binds
- binding (B78,Bw6_B*78:01 (human)): binds
- binding (B8,Bw6_B*08:01 (human)): binds
- binding (Cw10_C*03:02 (human)): binds
- binding (Cw10_C*03:04 (human)): binds
- binding (Cw12_C*12:03 (human)): binds
- binding (Cw14_C*14:02 (human)): binds
- binding (Cw15_C*15:02 (human)): binds
- binding (Cw16_C*16:01 (human)): binds
- binding (Cw17_C*17:01 (human)): binds
- binding (Cw18_C*18:02 (human)): binds
- binding (Cw1_C*01:02 (human)): binds
- binding (Cw2_C*02:02 (human)): binds
- binding (Cw4_C*04:01 (human)): binds
- binding (Cw5_C*05:01 (human)): binds
- binding [2]: binds
- binding [3]: binds
- binding (Cw8_C*08:01 (human)): binds
- binding (Cw9_C*03:03 (human)): binds

Results are given in words; binding and its absence hold for the method and conditions named. For part of these data: A result given as binding can be weak or reduced; the word gives no strength.
